Test [1] addresses BCL-xL (mouse (endogenous in MLE12)) (UniProt Q64373). As to the kind of experiment: co-IP; immunoprecipitation with anti-BCL-xL antibody from lysate of TSSK4^+ MLE12 cells stimulated without or with TNF-α (20 ng/ml), immunoblotting.
For test [2] the target is unchanged. Put plainly: co-IP; immunoprecipitation with anti-BCL-xL antibody from lysate of TSSK4-deficient MLE12 cells, TNF-α stimulation, immunoblotting. In general terms: Immunoblotting shows a protein as a band on a membrane.

Protein sequences, listed by entry. Tags and fused reporters are not part of them.
UniProt Q64373: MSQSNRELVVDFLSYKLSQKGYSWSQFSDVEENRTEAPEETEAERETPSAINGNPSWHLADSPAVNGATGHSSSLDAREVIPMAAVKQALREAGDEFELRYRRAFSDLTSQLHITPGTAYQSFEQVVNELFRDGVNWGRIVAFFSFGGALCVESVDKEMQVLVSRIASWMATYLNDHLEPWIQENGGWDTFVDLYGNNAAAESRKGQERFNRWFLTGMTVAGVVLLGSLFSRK

These are yes or no findings as the source states them, for the method shown. Binding seen in cells or lysates may run through a third protein. Some binding calls cover weakened binding; strength is not graded here. Sequences can lack the tags named with a protein.

B1: BAD (BCL2 antagonist of cell death) (protein, UniProt Q61337 1-204)
chain: MGTPKQPSLAPAHALGLRKSDPGIRSLGSDAGGRRWRPAAQSMFQIPEFEPSEQEDASATDRGLGPSLTEDQPGPYLAPGLLGSNIHQQGRAATNSHHGGAGAMETRSRHSSYPAGTEEDEGMEEELSPFRGRSRSAPPNLWAAQRYGRELRRMSDEFEGSFKGLPRPKSAGTATQMRQSAGWTRIIQSWWDRNLGKGGSTPSQ
B1: the binding result in test [1] was “binds”; in test [2], “no binding (condition: in TSSK4-deficient cells)”.

Values taken from PMC8514558.
